The other results are listed elsewhere or left out.
Tests used:
Assay in all cases: log2 fold change, soluble protein after heating vs DMSO (PISA); higher = thermal stabilisation; K562 lysate, 10 uM; active = over 0.2 and 3.5 SD of the protein, either way, in both replicates (recomputed)
ibrutinib = compound: C=CC(=O)N1CCC[C@@H](n2nc(-c3ccc(Oc4ccccc4)cc3)c3c(N)ncnc32)C1 [ibrutinib]
Procedure, shortened: (§1)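 Soluble protein was defined as the supernatant remaining after 21,000xg for 90 min, following pooling of heated aliquots and adjustment to 0.5% NP-40 at 4°C. Before that, crude K562 extract at 1 mg/mL protein in PBS pH 7.4 with 1 mM MgCl2 was treated with 10 μM compound for 30 min and heated for 3 min across 48°C-58°C. Quantification used TMTpro 16plex LC-MS/MS with channel sums equalised, and values are log-two fold changes in thermal stability relative to solvent controls from duplicates.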

By UniProt entry, the sequences of proteins in these tests, tags left out. Where a name states a change or a piece, a line headed by the entry shows the natural chain unless it says otherwise.
UniProt O43257, whole entry, looked up: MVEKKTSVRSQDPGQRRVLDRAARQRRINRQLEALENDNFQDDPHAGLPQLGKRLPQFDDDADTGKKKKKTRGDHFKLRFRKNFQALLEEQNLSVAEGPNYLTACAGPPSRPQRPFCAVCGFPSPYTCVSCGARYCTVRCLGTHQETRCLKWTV
UniProt Q19AV6: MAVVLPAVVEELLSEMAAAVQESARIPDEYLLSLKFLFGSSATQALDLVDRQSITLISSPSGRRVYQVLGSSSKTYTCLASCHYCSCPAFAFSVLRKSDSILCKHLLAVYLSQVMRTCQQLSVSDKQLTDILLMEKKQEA
UniProt P59817: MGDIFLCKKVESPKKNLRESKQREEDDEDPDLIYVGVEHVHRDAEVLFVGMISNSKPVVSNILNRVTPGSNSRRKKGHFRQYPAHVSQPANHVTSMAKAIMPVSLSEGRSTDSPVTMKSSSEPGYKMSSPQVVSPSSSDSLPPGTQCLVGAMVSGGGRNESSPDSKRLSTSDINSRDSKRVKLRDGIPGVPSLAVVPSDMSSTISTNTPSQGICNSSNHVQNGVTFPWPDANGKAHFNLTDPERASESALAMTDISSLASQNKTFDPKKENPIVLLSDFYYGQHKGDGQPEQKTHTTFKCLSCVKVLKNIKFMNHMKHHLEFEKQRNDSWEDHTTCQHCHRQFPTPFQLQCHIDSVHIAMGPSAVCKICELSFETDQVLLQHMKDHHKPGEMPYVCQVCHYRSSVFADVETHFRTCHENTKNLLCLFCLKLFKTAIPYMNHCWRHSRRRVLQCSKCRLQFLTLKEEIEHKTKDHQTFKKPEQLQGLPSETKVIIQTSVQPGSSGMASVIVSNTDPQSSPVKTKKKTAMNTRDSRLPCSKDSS
UniProt Q8TF50: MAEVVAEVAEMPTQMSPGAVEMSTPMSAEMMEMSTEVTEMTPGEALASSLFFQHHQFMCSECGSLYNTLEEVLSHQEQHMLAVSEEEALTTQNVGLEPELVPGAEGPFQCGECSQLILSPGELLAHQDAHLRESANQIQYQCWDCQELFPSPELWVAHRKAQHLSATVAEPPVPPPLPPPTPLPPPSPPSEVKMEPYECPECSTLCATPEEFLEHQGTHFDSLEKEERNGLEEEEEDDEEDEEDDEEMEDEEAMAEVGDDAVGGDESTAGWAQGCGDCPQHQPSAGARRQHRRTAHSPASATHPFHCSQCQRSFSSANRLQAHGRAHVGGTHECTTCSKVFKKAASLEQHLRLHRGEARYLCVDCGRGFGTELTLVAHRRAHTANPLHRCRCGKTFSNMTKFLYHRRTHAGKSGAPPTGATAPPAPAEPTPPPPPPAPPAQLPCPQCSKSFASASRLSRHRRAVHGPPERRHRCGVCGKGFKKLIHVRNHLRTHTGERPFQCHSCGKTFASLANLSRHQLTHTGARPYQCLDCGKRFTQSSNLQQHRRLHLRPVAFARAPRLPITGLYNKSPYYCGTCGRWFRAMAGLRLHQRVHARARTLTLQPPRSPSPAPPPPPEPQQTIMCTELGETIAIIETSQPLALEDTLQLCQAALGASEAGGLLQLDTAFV
UniProt Q6ZMS4: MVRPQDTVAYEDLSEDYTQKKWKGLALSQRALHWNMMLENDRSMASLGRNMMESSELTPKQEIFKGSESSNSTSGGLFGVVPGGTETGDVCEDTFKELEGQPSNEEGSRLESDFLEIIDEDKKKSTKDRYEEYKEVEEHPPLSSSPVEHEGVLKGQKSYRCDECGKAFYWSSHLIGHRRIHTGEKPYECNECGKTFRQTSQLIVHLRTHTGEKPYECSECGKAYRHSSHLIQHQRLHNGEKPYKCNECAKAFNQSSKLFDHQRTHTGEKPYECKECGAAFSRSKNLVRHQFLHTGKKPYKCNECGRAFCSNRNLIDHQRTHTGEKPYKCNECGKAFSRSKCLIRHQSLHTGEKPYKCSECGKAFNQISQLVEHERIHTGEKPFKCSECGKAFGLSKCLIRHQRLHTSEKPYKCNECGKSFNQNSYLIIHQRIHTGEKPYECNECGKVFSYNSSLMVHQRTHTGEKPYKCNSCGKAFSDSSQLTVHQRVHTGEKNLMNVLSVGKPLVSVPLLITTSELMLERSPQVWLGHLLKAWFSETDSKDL
UniProt Q96MX3: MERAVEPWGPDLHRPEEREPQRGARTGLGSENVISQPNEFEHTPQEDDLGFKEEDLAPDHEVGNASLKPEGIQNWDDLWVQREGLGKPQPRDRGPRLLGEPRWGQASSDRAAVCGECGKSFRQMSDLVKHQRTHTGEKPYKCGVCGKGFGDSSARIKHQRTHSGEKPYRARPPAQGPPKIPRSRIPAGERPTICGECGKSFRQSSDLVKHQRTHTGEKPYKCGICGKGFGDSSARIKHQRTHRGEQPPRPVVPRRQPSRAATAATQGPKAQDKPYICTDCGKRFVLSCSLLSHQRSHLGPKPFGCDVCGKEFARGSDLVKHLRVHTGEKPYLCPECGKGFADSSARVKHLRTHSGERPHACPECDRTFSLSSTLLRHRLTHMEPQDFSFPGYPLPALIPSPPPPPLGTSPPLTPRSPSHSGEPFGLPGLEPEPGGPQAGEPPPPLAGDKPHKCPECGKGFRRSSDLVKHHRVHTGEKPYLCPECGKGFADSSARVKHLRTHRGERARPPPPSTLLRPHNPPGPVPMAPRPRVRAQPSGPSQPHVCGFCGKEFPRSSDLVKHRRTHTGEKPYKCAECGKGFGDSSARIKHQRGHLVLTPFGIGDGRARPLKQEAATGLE
UniProt Q6N043: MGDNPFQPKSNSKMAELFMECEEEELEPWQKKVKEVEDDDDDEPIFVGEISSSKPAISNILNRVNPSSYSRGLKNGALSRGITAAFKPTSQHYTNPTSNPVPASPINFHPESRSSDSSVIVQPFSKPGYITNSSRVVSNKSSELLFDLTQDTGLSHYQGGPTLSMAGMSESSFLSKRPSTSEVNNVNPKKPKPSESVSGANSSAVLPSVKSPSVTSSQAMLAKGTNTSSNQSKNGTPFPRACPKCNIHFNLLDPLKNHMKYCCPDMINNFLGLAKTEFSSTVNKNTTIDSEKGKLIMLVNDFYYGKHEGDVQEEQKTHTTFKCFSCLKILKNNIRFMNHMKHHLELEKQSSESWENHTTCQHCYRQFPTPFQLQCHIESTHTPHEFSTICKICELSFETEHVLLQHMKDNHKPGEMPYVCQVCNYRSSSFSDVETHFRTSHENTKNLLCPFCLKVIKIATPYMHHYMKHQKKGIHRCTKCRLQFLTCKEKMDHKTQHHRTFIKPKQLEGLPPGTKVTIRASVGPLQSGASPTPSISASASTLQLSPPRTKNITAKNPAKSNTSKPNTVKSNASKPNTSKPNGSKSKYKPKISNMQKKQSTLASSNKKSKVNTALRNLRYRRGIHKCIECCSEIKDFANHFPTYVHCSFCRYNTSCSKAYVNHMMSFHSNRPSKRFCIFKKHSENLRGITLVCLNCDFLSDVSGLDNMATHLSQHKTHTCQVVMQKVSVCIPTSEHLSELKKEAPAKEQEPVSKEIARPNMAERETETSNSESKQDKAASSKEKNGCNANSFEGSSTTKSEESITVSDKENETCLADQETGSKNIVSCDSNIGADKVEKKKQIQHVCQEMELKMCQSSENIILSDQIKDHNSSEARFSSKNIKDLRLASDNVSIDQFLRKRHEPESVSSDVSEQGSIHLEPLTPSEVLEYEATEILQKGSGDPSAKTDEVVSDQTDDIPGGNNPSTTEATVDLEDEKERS
UniProt Q9Y2X9: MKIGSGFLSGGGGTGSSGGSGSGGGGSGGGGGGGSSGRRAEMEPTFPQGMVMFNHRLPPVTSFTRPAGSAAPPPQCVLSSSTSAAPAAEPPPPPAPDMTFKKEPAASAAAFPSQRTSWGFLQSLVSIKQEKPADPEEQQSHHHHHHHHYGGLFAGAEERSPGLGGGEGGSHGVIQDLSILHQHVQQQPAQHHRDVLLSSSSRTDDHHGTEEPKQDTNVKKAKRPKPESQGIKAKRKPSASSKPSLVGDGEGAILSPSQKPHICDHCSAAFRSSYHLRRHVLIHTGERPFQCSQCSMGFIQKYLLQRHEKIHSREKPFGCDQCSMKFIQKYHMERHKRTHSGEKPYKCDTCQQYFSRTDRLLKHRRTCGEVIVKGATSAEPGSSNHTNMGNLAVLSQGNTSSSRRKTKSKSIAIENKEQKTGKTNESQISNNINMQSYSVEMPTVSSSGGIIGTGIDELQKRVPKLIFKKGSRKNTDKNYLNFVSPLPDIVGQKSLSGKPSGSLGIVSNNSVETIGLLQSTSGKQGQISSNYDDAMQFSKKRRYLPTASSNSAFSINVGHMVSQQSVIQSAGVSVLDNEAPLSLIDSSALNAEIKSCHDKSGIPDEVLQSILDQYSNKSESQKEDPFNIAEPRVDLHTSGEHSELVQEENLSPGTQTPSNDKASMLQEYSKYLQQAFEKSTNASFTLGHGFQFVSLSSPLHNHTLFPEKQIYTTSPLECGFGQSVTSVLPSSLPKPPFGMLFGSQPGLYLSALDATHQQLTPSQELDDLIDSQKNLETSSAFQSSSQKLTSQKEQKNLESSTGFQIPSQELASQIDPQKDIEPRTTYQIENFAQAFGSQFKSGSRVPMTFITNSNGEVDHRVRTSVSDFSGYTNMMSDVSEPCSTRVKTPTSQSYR
UniProt Q6NUN9: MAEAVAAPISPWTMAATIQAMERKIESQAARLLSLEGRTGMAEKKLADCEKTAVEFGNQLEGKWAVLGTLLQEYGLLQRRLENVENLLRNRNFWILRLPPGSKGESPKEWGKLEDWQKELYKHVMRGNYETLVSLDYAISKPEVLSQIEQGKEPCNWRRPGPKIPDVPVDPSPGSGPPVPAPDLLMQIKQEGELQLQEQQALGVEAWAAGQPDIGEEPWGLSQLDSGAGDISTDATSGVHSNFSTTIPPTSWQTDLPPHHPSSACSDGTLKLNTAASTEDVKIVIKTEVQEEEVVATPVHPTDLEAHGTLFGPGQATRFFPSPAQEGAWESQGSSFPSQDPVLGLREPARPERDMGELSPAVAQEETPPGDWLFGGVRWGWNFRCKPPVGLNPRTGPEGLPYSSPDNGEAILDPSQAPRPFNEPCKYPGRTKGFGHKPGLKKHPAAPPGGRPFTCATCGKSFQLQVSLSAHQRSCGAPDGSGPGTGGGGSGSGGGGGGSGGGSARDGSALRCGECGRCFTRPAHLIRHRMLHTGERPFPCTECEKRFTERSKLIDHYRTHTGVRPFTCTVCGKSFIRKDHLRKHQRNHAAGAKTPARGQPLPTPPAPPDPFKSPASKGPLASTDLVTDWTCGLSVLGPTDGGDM
UniProt Q8N4W9: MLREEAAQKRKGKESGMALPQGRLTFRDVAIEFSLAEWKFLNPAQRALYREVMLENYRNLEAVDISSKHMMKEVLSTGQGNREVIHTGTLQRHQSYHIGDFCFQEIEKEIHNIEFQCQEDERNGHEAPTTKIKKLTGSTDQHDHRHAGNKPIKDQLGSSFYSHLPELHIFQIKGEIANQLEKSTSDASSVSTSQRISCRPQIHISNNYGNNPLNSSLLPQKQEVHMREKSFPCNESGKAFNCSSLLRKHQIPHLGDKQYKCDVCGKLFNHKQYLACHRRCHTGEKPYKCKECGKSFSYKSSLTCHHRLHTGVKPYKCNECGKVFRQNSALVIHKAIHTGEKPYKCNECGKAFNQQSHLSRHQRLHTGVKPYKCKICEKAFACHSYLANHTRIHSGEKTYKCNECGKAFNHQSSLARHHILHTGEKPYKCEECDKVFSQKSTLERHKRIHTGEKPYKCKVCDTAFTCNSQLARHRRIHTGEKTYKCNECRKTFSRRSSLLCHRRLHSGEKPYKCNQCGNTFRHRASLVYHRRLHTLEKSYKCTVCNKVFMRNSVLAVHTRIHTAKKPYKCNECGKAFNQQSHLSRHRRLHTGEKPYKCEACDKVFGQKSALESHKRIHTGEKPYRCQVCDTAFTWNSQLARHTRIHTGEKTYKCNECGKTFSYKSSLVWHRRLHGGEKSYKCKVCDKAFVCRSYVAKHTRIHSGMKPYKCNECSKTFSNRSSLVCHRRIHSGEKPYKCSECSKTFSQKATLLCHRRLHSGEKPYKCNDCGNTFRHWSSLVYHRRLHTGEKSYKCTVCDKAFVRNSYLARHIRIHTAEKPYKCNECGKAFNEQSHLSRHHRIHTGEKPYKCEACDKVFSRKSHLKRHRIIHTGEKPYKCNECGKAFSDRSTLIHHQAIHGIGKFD
UniProt Q86VK4: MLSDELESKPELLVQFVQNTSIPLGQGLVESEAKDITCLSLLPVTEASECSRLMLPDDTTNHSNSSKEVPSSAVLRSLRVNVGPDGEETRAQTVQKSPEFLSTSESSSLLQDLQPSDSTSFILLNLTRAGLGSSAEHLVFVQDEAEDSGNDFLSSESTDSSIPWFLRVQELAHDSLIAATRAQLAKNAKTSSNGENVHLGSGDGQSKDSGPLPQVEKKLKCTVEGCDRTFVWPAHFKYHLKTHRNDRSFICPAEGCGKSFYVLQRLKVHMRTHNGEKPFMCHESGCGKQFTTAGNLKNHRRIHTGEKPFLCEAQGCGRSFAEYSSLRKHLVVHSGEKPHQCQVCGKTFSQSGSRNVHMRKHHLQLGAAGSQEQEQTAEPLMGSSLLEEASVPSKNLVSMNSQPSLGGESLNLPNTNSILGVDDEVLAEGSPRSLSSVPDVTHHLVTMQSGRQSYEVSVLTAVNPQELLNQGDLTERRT

ralimetinib = compound: CC(C)(C)Cn1c(N)nc2ccc(-c3[nH]c(C(C)(C)C)nc3-c3ccc(F)cc3)nc21 [ralimetinib]
Procedure, shortened: as §1

[1] = compound: CC(C)(O)CC(=O)NCCn1ccc2ncnc(Nc3ccc(Oc4cccc(C(F)(F)F)c4)c(Cl)c3)c21
Procedure, shortened: as §1

[2] = compound: CC(C)C1=C2N=C(C=C(N2N=C1)NCC3=CC=CC=C3)NCCCCCCN
Procedure, shortened: as §1

[3] = compound: CC1=C(C2=C(C=C1)C(=O)C3=CC=CC=C3N2CCCN)C
Procedure, shortened: as §1

[4] = compound: CC1=C(C=C(C=C1)NC(=O)C2=CC(=CC=C2)N(C)C)NC(=O)C3=CC=C(C=C3)O
Procedure, shortened: as §1

vemurafenib = compound: CCCS(=O)(=O)Nc1ccc(F)c(C(=O)c2c[nH]c3ncc(-c4ccc(Cl)cc4)cc23)c1F [vemurafenib]
Procedure, shortened: as §1

barasertib = compound: CCN(CCCOc1ccc2c(Nc3cc(CC(=O)Nc4cccc(F)c4)[nH]n3)ncnc2c1)CCOP(=O)(O)O [barasertib]
Procedure, shortened: as §1

[5] = compound: CCn1c(C(=O)N(C2CC2)C2CC2)cc2c3c(ncn3C)c(Nc3cc(C)n(C)n3)nc21
Procedure, shortened: as §1

saracatinib = compound: CN1CCN(CCOc2cc(OC3CCOCC3)c3c(Nc4c(Cl)ccc5c4OCO5)ncnc3c2)CC1 [saracatinib]
Procedure, shortened: as §1

[6] = compound: CC1=C(C(CC(=O)N1)C2=CC=C(C=C2)C(F)(F)F)C(=O)NC3=C(C=C4C(=C3)C=NN4)F
Procedure, shortened: as §1

[7] = compound: CC1=C(C=C(C=C1)NC(=O)C2=CC(=CC=C2)C(C)(C)C#N)NC3=CC4=C(C=C3)N=CN(C4=O)C
Procedure, shortened: as §1

sotrastaurin = compound: CN1CCN(c2nc(C3=C(c4c[nH]c5ccccc45)C(=O)NC3=O)c3ccccc3n2)CC1 [sotrastaurin]
Procedure, shortened: as §1

[8] = compound: CCn1cc(-c2ccnc3[nH]c(-c4cccc(CN(C)C)c4)cc23)c(-c2ccc(NC(=O)N(C)C)cc2)n1
Procedure, shortened: as §1

[9] = compound: CN1CCC(CNc2ccc3ncc(-c4cccc(OC(F)(F)F)c4)n3n2)CC1
Procedure, shortened: as §1

[10] = compound: CC[C@@H]1C(=O)N(C)c2cnc(Nc3ccc(C(=O)NC4CCN(C)CC4)cc3OC)nc2N1C1CCCC1
Procedure, shortened: as §1

[11] = compound: CC(=O)c1cnc2ccc(-c3cc(Cl)c(O)c(Cl)c3)nc2c1N[C@H]1CC[C@H](CN(C)C)CC1
Procedure, shortened: as §1

[12] = compound: CC1=CC=C(C=C1)SC2=C3C=C(SC3=CN=C2)C(=O)N
Procedure, shortened: as §1

[13] = compound: CCCS(=O)(=O)Nc1ccc(F)c(C(=O)c2c[nH]c3ncc(Cl)cc23)c1F
Procedure, shortened: as §1

volasertib = compound: CC[C@@H]1C(=O)N(C)c2cnc(Nc3ccc(C(=O)N[C@H]4CC[C@H](N5CCN(CC6CC6)CC5)CC4)cc3OC)nc2N1C(C)C [volasertib]
Procedure, shortened: as §1

Measured: log2 fold change

ZNF445 (UniProt P59923)
inactive: ibrutinib 0.076 | ralimetinib -0.139 | [1] 0.078 | [2] 0.042 | [3] -0.018 | [4] 0.023 | vemurafenib -0.019 | barasertib 0.254 | [5] -0.123 | saracatinib -0.101

ZNF385A (UniProt Q96PM9)
inactive: ibrutinib -0.002 | ralimetinib 0.05 | [1] -0.178 | [2] 0.068 | [6] 0.192 | [7] -0.124 | [4] 0.02 | barasertib 0.031 | [5] 0.035 | sotrastaurin -0.315

ZNF8 (UniProt P17098)
inactive: ibrutinib 0.234 | ralimetinib 0.084 | [1] -0.054 | [2] 0 | [6] -0.053 | [3] -0.064 | [7] 0.004 | [4] 0.065 | vemurafenib -0.071 | barasertib 0.287 | [5] 0.021 | [8] 0.026 | [9] -0.061 | saracatinib 0.057 | sotrastaurin -0.232

ZZZ3 (UniProt Q8IYH5)
inactive: ibrutinib 0.257 | ralimetinib 0.021 | [1] 0.019 | [2] 0.147 | [6] -0.107 | [3] -0.021 | [7] 0.001 | [4] 0.009 | vemurafenib 0.046 | barasertib -0.073 | [10] 0.065 | [5] 0.011 | [8] 0.108 | [9] -0.1 | saracatinib 0.009 | sotrastaurin 0

ZNHIT1 (UniProt O43257)
inactive: ibrutinib -0.066 | ralimetinib 0.013 | [1] -0.086 | [2] 0.018 | [6] 0.062 | [4] 0.004 | barasertib -0.116 | [10] -0.038 | [5] -0.024

ZNF225 (UniProt Q9UK10)
inactive: ibrutinib -0.122 | ralimetinib -0.174 | [1] -0.356 | [2] 0.044 | [3] -0.502 | [4] -0.012 | vemurafenib 0.429 | barasertib 0.048 | [10] -0.018 | [5] -0.361 | saracatinib -0.05

ZSWIM7 (UniProt Q19AV6)
inactive: ralimetinib 0.135 | [1] -0.052 | [2] 0.036 | [3] -0.036 | [4] -0.033 | vemurafenib 0.021 | [5] 0.06 | [8] 0.142 | [9] -0.009 | saracatinib 0.124

ZNF618 (UniProt B1ALC2)
inactive: [11] -0.107 | [6] 0.008 | [3] -0.053 | [7] 0.027 | [12] -0.052 | vemurafenib 0.016 | [13] -0.005 | [10] 0.095 | volasertib 0.073 | [8] 0.108 | [9] 0.037 | saracatinib 0.215 | sotrastaurin -0.008

ZNF460 (UniProt Q14592)
inactive: ibrutinib 0.005 | vemurafenib -0.024 | barasertib 0.065 | [10] -0.028

ZNF280A (UniProt P59817)
inactive: ralimetinib 0.021 | [1] 0.143 | [2] 0.17 | [6] 0.023 | [3] 0.038 | [7] 0.234 | [4] -0.306 | [5] -0.01 | saracatinib 0.086 | sotrastaurin -0.104

ZNF101 (UniProt Q8IZC7)
inactive: [11] 0.093 | ralimetinib 0.103 | [1] 0.042 | [2] 0.116 | [3] -0.06 | [7] -0.139 | [4] -0.216 | [12] 0.05 | [13] 0.063 | volasertib -0.068 | [5] 0.003 | saracatinib -0.024 | sotrastaurin 0.095

ZNF239 (UniProt Q16600)
inactive: ibrutinib 0.04 | ralimetinib -0.025 | [1] -0.044 | [2] -0.022 | [6] -0.017 | [7] -0.014 | [4] -0.017 | vemurafenib -0.034 | barasertib 0.015 | [10] 0.178 | [5] 0.018 | [8] 0.102 | [9] -0.124 | sotrastaurin 0.001

ZNF526 (UniProt Q8TF50)
inactive: ralimetinib 0.035 | [1] 0.077 | [2] -0.21 | [6] 0.018 | [3] -0.015 | [4] 0.282 | [5] -0.048 | [8] 0.118 | [9] -0.142 | saracatinib 0.044

ZNF627 (UniProt Q7L945)
inactive: ibrutinib 0.003 | [2] 0.33 | [7] -0.081 | barasertib -0.241 | [8] -0.155 | [9] -0.014 | sotrastaurin 0.061

ZNF561-AS1 (UniProt K7EIQ3)
inactive: ibrutinib -0.051 | ralimetinib 0.09 | [1] 0.239 | [2] -0.076 | [4] -0.234 | barasertib 0.216 | [5] 0.132

ZNF326 (UniProt Q5BKZ1)
inactive: ralimetinib -0.033 | [1] 0.008 | [2] 0.053 | [6] -0.065 | [3] 0.014 | [7] 0.015 | [4] 0.005 | vemurafenib 0.053 | [10] 0.004 | [5] 0.002 | [8] 0.052 | [9] 0.038 | saracatinib 0.026 | sotrastaurin 0

ZKSCAN4 (UniProt Q969J2)
inactive: [11] 0.13 | ralimetinib -0.09 | [1] 0.027 | [2] -0.032 | [7] 0.12 | [4] 0.061 | [12] 0.082 | vemurafenib 0.157 | [13] -0.228 | volasertib -0.246 | [5] -0.007 | sotrastaurin -0.049

ZNF852 (UniProt Q6ZMS4)
inactive: [11] 0.124 | [2] -0.057 | [7] 0.035 | [12] -0.126 | vemurafenib 0.094 | [13] 0.005 | volasertib -0.148 | [8] -0.126 | [9] 0.079 | sotrastaurin 0.104

ZNF639 (UniProt Q9UID6)
inactive: ralimetinib 0.078 | [1] -0.09 | [2] -0.058 | [6] 0.012 | [3] -0.022 | [7] 0.022 | [4] -0.093 | vemurafenib -0.051 | [5] -0.047 | [8] 0.106 | [9] -0.198 | saracatinib -0.026 | sotrastaurin 0.046

ZNF280B (UniProt Q86YH2)
inactive: ibrutinib 0.027 | [2] 0.011 | [6] -0.083 | [7] 0.085 | vemurafenib -0.061 | barasertib -0.046 | [8] 0.176 | [9] 0.047 | sotrastaurin 0.013

Quoted from the entries so far (two entries):
ZNF526 (UniProt Q8TF50)
inactive: ralimetinib 0.035 | [1] 0.077 | [2] -0.21 | [6] 0.018 | [3] -0.015 | [4] 0.282 | [5] -0.048 | [8] 0.118 | [9] -0.142 | saracatinib 0.044

ZNF627 (UniProt Q7L945)
inactive: ibrutinib 0.003 | [2] 0.33 | [7] -0.081 | barasertib -0.241 | [8] -0.155 | [9] -0.014 | sotrastaurin 0.061

(cont.)

ZNF48 (UniProt Q96MX3)
inactive: [11] 0.013 | [12] 0.132 | [13] -0.024 | [10] 0 | volasertib 0.013 | [8] -0.102 | [9] 0.072

ZNF444 (UniProt Q8N0Y2)
inactive: ibrutinib 0.355 | ralimetinib -0.094 | [1] -0.031 | [3] 0.041 | [7] 0.117 | [4] -0.13 | barasertib 0.151 | [5] 0.026 | [8] 0.146 | [9] -0.085 | saracatinib -0.002 | sotrastaurin -0.077

ZNF280D (UniProt Q6N043)
inactive: [11] 0.026 | ralimetinib -0.106 | [1] 0.577 | [4] -0.012 | [12] -0.171 | [13] 0.199 | volasertib -0.005 | [5] 0.282 | [8] 0.014 | [9] 0.13

ZNF281 (UniProt Q9Y2X9)
inactive: ralimetinib -0.055 | [1] 0.081 | [2] 0.039 | [3] -0.008 | [7] -0.081 | [4] -0.041 | [5] 0.011 | saracatinib -0.069 | sotrastaurin 0.028

ZNF746 isoform 2 (UniProt Q6NUN9)
inactive: ralimetinib -0.248 | [1] -0.032 | [6] -0.124 | [4] 0.005 | [5] -0.282

ZNF184 (UniProt Q99676)
inactive: ralimetinib 0.034 | [1] -0.024 | [6] 0.148 | [3] -0.038 | [7] -0.039 | [4] -0.007 | [5] 0.059 | saracatinib -0.052 | sotrastaurin -0.017

ZNF808 (UniProt Q8N4W9)
inactive: ralimetinib -0.163 | [1] -0.356 | [3] -0.097 | [7] 0.409 | [4] -0.149 | [5] -0.191 | saracatinib 0.206 | sotrastaurin -0.008

ZSCAN21 (UniProt Q9Y5A6)
inactive: [10] -0.024 | [8] 0.043 | [9] 0.053

ZNF655 isoform 3 (UniProt Q8N720)
inactive: [7] 0.07 | [10] 0.079 | sotrastaurin 0.067

ZNF655 isoform 2 (UniProt Q8N720)
inactive: vemurafenib -0.129 | [8] 0.007 | [9] 0.1

ZNF16 (UniProt P17020)
inactive: [7] 0.072 | sotrastaurin 0.02

ZRSR2 (UniProt Q15696)
inactive: [7] 0.001 | sotrastaurin 0.006

ZNF410 isoform 5 (UniProt Q86VK4)
inactive: [7] -0.216 | [10] -0.04 | sotrastaurin -0.073

ZNF770 (UniProt Q6IQ21)
inactive: [7] -0.131 | sotrastaurin 0.089

Reference: the supplement of paper PMC10849652
